Values from PubChem BioAssay AID1259425 (University of Nebraska Medical Center, 2018)

- Test: 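Compare each knockdown with KSR1 silencing using changes in marker transcripts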 (primary screen)
- Cell system: HCT116 human colon cancer cells
- Reagents: siRNA pool against human genes, 50 nM siRNA
- Measurement: 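mRNA of six signature genes measured together by branched-DNA assay after 50 nM siRNA pool, blank removed, divided by geometric mean of two housekeeping genes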
- Scale: BNIP3L mRNA: higher = more BNIP3L transcript after knockdown
Shown is one part, drawn at random, of about 14,000 deposited reagents. Not all columns of the deposit are shown. The record does not give: the time to read-out.

For MARCHF7 (membrane associated ring-CH-type finger 7), the entry reads BNIP3L mRNA, set 1 = 0.0896.
Against F2R (coagulation factor II thrombin receptor), the entry reads BNIP3L mRNA, set 1 = 0.352.
ID2 (inhibitor of DNA binding 2) scored BNIP3L mRNA, set 1 = 0.121.
PACC1 (proton activated chloride channel 1) scored BNIP3L mRNA, set 1 = 0.0584.
Knock-down of PHYKPL (5-phosphohydroxy-L-lysine phospho-lyase) came out at: BNIP3L mRNA, set 1 = 0.0987.
ZNF26 (zinc finger protein 26) scored BNIP3L mRNA, set 1 = 0.0882.
For NPM2 (nucleophosmin/nucleoplasmin 2), the values are BNIP3L mRNA, set 1 = 0.143.
For CRISPLD2 (cysteine rich secretory protein LCCL domain containing 2), the entry reads BNIP3L mRNA, set 1 = 0.151.
For PTTG1IP (PTTG1 interacting protein), the entry reads BNIP3L mRNA, set 1 = 0.0904.
For UGP2 (UDP-glucose pyrophosphorylase 2), the values are BNIP3L mRNA, set 1 = 0.112.

Not a retest: an excerpt of the list.
F2R (coagulation factor II thrombin receptor) | BNIP3L mRNA, set 1: 0.352
ID2 (inhibitor of DNA binding 2) | BNIP3L mRNA, set 1: 0.121

More results:
With knock-down of TACC1 (transforming acidic coiled-coil containing protein 1), the record shows BNIP3L mRNA, set 1 = 0.132.
After knock-down of XYLT2 (xylosyltransferase 2), the screen gave BNIP3L mRNA, set 1 = 0.157.
Against NDUFAF4 (NADH:ubiquinone oxidoreductase complex assembly factor 4), the values are BNIP3L mRNA, set 1 = 0.104.
For ATP1B3 (ATPase Na+/K+ transporting subunit beta 3), the entry reads BNIP3L mRNA, set 1 = 0.112.
With knock-down of OPN3 (opsin 3) the results were BNIP3L mRNA, set 1 = 0.105.
AOC1 (amine oxidase copper containing 1) gave BNIP3L mRNA, set 1 = 0.0678.
Silencing of CDH7 (cadherin 7) resulted in: BNIP3L mRNA, set 1 = 0.143.
Silencing of SH2D3C (SH2 domain containing 3C) resulted in: BNIP3L mRNA, set 1 = 0.177.
MS4A4A (membrane spanning 4-domains A4A) showed BNIP3L mRNA, set 1 = 0.135.
With knock-down of METTL8 (methyltransferase 8, tRNA N3-cytidine), the screen gave BNIP3L mRNA, set 1 = 0.0948.
With knock-down of TSSK2 (testis specific serine kinase 2), the screen gave BNIP3L mRNA, set 1 = 0.149.
Silencing of IL25 (interleukin 25) resulted in: BNIP3L mRNA, set 1 = 0.226.
After knock-down of MLX (MAX dimerization protein MLX), the record shows BNIP3L mRNA, set 1 = 0.126.
For H2AC7 (H2A clustered histone 7) the deposit lists BNIP3L mRNA, set 1 = 0.186.
Against SLC49A4, the entry reads BNIP3L mRNA, set 1 = 0.0914.
After knock-down of EPDR1 (ependymin related 1), the screen gave BNIP3L mRNA, set 1 = 0.156.
For ARHGAP32 (Rho GTPase activating protein 32), the values are BNIP3L mRNA, set 1 = 0.295.
SPATA31A7 (SPATA31 subfamily A member 7) gave BNIP3L mRNA, set 1 = 0.123.
